# Measurements reported in PubChem BioAssay AID2685 (National Center for Advancing Translational Sciences (NCATS), 2010).
# This is one part of the list. Further columns of the screen follow, without active or inactive calls. The list favours compounds with an active or inconclusive main result. Words in brackets tell the shape of the fitted curve; partial curves, single points and poor fits give uncertain potencies. Where a SMILES comes first, the peptide text is derived from it. [ ]: non-standard residue; d: D form. pGlu = O=C1CC[CH](C(=O)O)N1
# Experiment: qHTS Assay for Lipid Storage Modulators in Drosophila S3 Cells;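 for cell number change: cells counted by Cell Tracker Red CMTPX staining in the red channel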
# Conditions: BODIPY lipid droplet fluorescence, 18-24 h; for cell number change: measured here: cell count max response, cells fed with added oleic acid
# How it was run: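 Laser-scanning cytometry quantifies lipid droplet accumulation (500–530 nm total intensity; droplet/cell object ratio) in oleic acid-fed (400 uM added) Drosophila S3 cells treated with a concentration series. 20 uM Triacsin C defined 100% inhibition.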
# [1] = measured here: cell number channel AC50, cells fed with added oleic acid
# [2] = measured here: lipid fluorescence (Fed channel) AC50, cells fed with added oleic acid
Compound,cell number change,AC50 [1],AC50 [2]
O=C(O)[C@H](CSCc1ccccc1)NS(=O)(=O)c1ccc(F)cc1,-62.1%,"0.184 µM [falling, partial curve, poor fit]","0.58 µM [falling, full curve]"
COc1ccccc1/C=C/C=C1\Oc2c(ccc(O)c2CN2CCN(CCO)CC2)C1=O,-83.1%,"7.31 µM [falling, partial curve]","1.64 µM [rising, partial curve]"
CCOc1ccc(C2=Nn3cnnc3SC2)cc1,8.18%,"3.66 µM [rising, single point]",–
N#CC1=C(N)Oc2cc(N)ccc2C1c1ccsc1 (stereo unspecified),8.76%,–,"18.4 µM [rising, single point]"
CC(=O)c1ccc(N2CCN(c3ncccn3)CC2)cc1,-10.5%,–,"0.0103 µM [falling, full curve, poor fit]"
Cc1sc2ncnc(N[C@@H](CCC(=O)O)C(=O)O)c2c1C,-5.45%,–,"0.146 µM [falling, full curve, poor fit]"
O=C(COc1ccc(Cl)cc1Cl)OCC(=O)c1ccc[nH]1,-23.8%,–,"16.4 µM [rising, partial curve]"
O=C(O)c1cccc(NC2=C(N3CCOCC3)C(=O)c3ccccc3C2=O)c1,-14.3%,–,"20.6 µM [falling, single point]"
Cc1cc(Cl)c2oc(C(=O)N(C)CCCN3CCOCC3)c(C)c2c1,31%,–,–
CCN(CC)CCN1C(=O)Cn2c(C)c(C)c3cccc1c32,–,"0.103 µM [rising, single point]","6.51 µM [falling, single point]"
Cc1cc(C(=O)N/N=C\c2ccc(COc3ccc([N+](=O)[O-])cc3)o2)ccc1[N+](=O)[O-],8.52%,"2.91 µM [rising, partial curve]","3.66 µM [rising, partial curve]"
CCOc1ccc(N)c(SSc2cc(OCC)ccc2N)c1,-21.1%,–,–
COc1ccc(-c2cc(-c3ccccc3)nc(-c3ccc4c(c3)NC(=O)CO4)c2)cc1,23.2%,–,"20.6 µM [rising, single point]"
COCc1nnc(NC(=O)c2ccc(S(=O)(=O)N(CC(C)C)CC(C)C)cc2)o1,-72.9%,"0.184 µM [falling, full curve, poor fit]",–
CCn1c(SCc2ccc(F)cc2)nc2c(c1=O)SCC2,4.33%,–,–
c1ccc(-c2nc(NC3CC3)nc(-n3ccnc3)n2)cc1,-55.6%,"13 µM [falling, partial curve]","0.259 µM [rising, full curve]"
O=C(Nc1cccc(C(=O)Nc2cccc(Br)c2)c1)c1ccccc1,–,–,"0.291 µM [falling, full curve]"
Cc1ccc(S(=O)(=O)N(C)C)cc1NC(=O)CSc1nncs1,–,"0.82 µM [rising, full curve]",–
Cc1cc(C)cc(N(CC(=O)NCc2ccccc2)C(=O)CCC(=O)Nc2ccccn2)c1,30.2%,"8.2 µM [rising, partial curve, poor fit]",–
O=C1NC(c2cccs2)Nc2ccccc21 (stereo unspecified),-48.9%,"23.1 µM [falling, partial curve, poor fit]",–

Compound,cell number change,AC50 [1],AC50 [2]
O=C(CN1C(=O)NC(Cc2c[nH]c3ccccc23)C1=O)Nc1ccc(Br)cc1F (stereo unspecified),49.9%,"29.1 µM [rising, single point]",–
CNC(=S)N/N=C(\C)c1ccc(N2CCOCC2)cc1,-0.739%,–,"0.092 µM [rising, full curve, poor fit]"
O=C(OCc1nc2ccccc2s1)[C@@H]1CCCN1S(=O)(=O)c1ccccc1F,-3.15%,–,"3.66 µM [falling, full curve]"
CC(C)CC(NC(=O)C1CCC(=O)N1)C(=O)NC(CC(C)C)C(=O)N1CCCC1C(N)=O (stereo unspecified) ([pGlu]LLP-NH2; configuration not given here),42.6%,"32.6 µM [rising, partial curve]","6.51 µM [rising, single point]"
CN1CCN(C(=O)c2ccc(C(C)(C)C)cc2)CC1,23.8%,–,"0.146 µM [falling, full curve, poor fit]"
CC(C)CN(C(=O)C1CSC2(C)CCC(=O)N12)c1c(N)n(Cc2ccccc2)c(=O)[nH]c1=O (stereo unspecified),-27.8%,"0.58 µM [falling, full curve, poor fit]","13 µM [falling, partial curve]"
Cc1ccc(C)c(OCC(=O)N2CCc3ccccc3C2)c1,28.2%,–,"14.6 µM [rising, single point]"
COc1ccc(CN(C)c2ncnc(N)n2)cc1,-0.713%,–,"16.4 µM [falling, partial curve]"
Cc1cc(=O)oc(C)c1C(=O)NCc1ccco1,-23.2%,"0.0517 µM [falling, full curve]",–
COCCC(=O)N1CCC(Oc2ccc(C(=O)NCCCC3CCCC3)cc2)CC1,18.5%,–,"1.84 µM [rising, full curve, poor fit]"
Cc1nnc2ccc(-c3ccc(NS(=O)(=O)c4ccccc4F)cc3)nn12,–,"2.31 µM [rising, partial curve]",–
C#CCNC(=O)C1=C[C@H](C)[C@@H](CCCO)[C@H](OCC)O1,-8.02%,–,"7.31 µM [falling, single point]"
CCCCCCC(=O)NCC(=O)OCC(=O)c1ccccc1,-32.7%,"4.61 µM [falling, full curve]","4.11 µM [falling, full curve]"
O=C(NNCC(O)COc1ccccc1)c1ccccc1 (stereo unspecified),–,"0.00517 µM [falling, full curve, poor fit]","0.731 µM [falling, full curve, poor fit]"
CC(OC(=O)Cn1cnc2c1c(=O)n(C)c(=O)n2C)C(=O)Nc1ccc(Cl)cc1 (stereo unspecified),-0.427%,–,"6.51 µM [rising, partial curve]"
CCOC(=O)N1CCC(N2Cc3cccc(C(=O)NC(C)c4ccc5c(c4)OCCO5)c3C2=O)CC1 (stereo unspecified),-5.45%,–,"0.82 µM [rising, single point]"
O=C1c2ccccc2OCOc2ccccc21,-33.2%,–,"0.461 µM [falling, full curve]"
CN(C)CC(O)COc1ccc(-c2ccc(C#N)cc2)cc1 (stereo unspecified),-63.5%,"29.1 µM [falling, single point]","29.1 µM [falling, single point]"
COc1cc(C(=O)NC2CCN(Cc3ccccc3)CC2)cc(Cl)c1OC,18%,–,"2.06 µM [rising, full curve]"
Cc1ccc(NC(=O)COc2ccc(/C=C3/SC(=Nc4ccccc4)N(Cc4cccnc4)C3=O)cc2)cc1,-0.133%,–,–

# Whole records from above. Values in the order: cell number change | AC50 [1] | AC50 [2]
# Cc1nnc2ccc(-c3ccc(NS(=O)(=O)c4ccccc4F)cc3)nn12 is listed as – | 2.31 µM [rising, partial curve] | –
# CN1CCN(C(=O)c2ccc(C(C)(C)C)cc2)CC1 is listed as 23.8% | – | 0.146 µM [falling, full curve, poor fit]
# C#CCNC(=O)C1=C[C@H](C)[C@@H](CCCO)[C@H](OCC)O1 is listed as -8.02% | – | 7.31 µM [falling, single point]
# Cc1ccc(C)c(OCC(=O)N2CCc3ccccc3C2)c1 is listed as 28.2% | – | 14.6 µM [rising, single point]

# (continued)

Compound,cell number change,AC50 [1],AC50 [2]
Cc1ccc(S(=O)(=O)N(C)CCCC(=O)Nc2ccncc2)cc1,-19.5%,–,"5.17 µM [rising, full curve]"
Cc1cccc(/C=C/C(=O)c2ccc(N3CCOCC3)cc2)c1,–,–,"6.51 µM [rising, single point]"
O=C(NCc1ccccn1)c1ccc(N2CCCC2=O)cc1,20.6%,–,"23.1 µM [rising, single point]"
COCCCN(C(=O)c1cc(C)oc1C)c1c(N)n(CC(C)C)c(=O)[nH]c1=O,–,–,"16.4 µM [rising, partial curve]"
Nc1n[nH]c(N)c1N=Nc1cccc(C(F)(F)F)c1,-27.8%,–,"29.1 µM [falling, single point]"
Cc1ccccc1-n1ncc(C(C)NC(=O)c2ccccc2)c1C (stereo unspecified),-38.6%,"0.103 µM [falling, full curve]","0.164 µM [falling, full curve, poor fit]"
CC1(C)C(c2cccs2)=NC(c2ccccc2)N1O (stereo unspecified),4.58%,–,"20.6 µM [rising, single point]"
Cc1ccc(S(=O)(=O)N(C)c2ccc(C(=O)Nc3ccccn3)cc2)cc1,25.4%,"1.03 µM [rising, full curve, poor fit]","1.46 µM [rising, full curve]"
Cc1c(Cl)cccc1NC(=O)C1NC(=O)CC1c1ccccc1 (stereo unspecified),-30.5%,–,–
CCOc1ccc(C(=O)Nc2cc3c(cc2N2CCCC2)n(CC)c(=O)n3CC)cc1OCC,-21.7%,–,"29.1 µM [falling, single point]"
CSc1nc(-c2ccccc2)nc(N2CCCC2)c1C(C)=O,-16.1%,"0.366 µM [falling, full curve, poor fit]",–
O=C(Cn1nnc(-c2ccccc2)n1)N/N=C/c1ccco1,9.98%,–,–
NC(=O)c1c(NC(=O)C(=O)NCCCN2CCOCC2)sc2c1CCCC2,8.96%,–,–
CCOC(=O)c1cccc(NC(=O)CCS(=O)(=O)c2cccs2)c1,-4.2%,–,"0.731 µM [rising, partial curve, poor fit]"
Cc1ccc(C(C)C)c(OCC(=O)NC2CCN(C)CC2)c1,5.5%,"0.651 µM [falling, single point]",–
CCOC(=O)COc1ccc(S(=O)(=O)NCc2cccnc2)cc1,-5.47%,–,"25.9 µM [falling, single point]"
CN1C(=O)C2(Nc3ccccc3-c3nc4ccccc4n32)c2ccccc21 (stereo unspecified),-23.7%,–,"29.1 µM [falling, single point]"
COc1ccc(N(CC(=O)NCc2ccco2)S(=O)(=O)c2c(C)nn(C)c2C)cc1,6.63%,–,–
CCCc1cc(=O)oc2cc(C)cc(OCC(=O)N[C@@H](CSCc3ccccc3)C(=O)O)c12,-5.29%,–,"6.51 µM [rising, single point]"
CC(OC(=O)C1=Cc2ccccc2OC1)C(=O)NC1CCCC1 (stereo unspecified),–,–,"0.326 µM [rising, single point]"
